Compound in the assay: Nc1nc2c(ncn2[C@@H]2O[C@H](COP(=O)(O)OP(=O)(O)OP(=O)(O)O)[C@@H](O)[C@H]2O)c(=O)[nH]1 [guanosine triphosphate]
Kind of assay: NP40-soluble protein abundance relative to vehicle (solubility fold change) (ratio); higher = more soluble protein in presence of GTP. Summed up:
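Jurkat crude lysate (Dounce-homogenised) was treated with eight concentrations from 0.1 to 10 mM for 10 min at room temperature, then 3 min at 37 °C. It was solubilised with 0.8% NP40 and benzonase (60 min, 4 °C) and ultracentrifuged, and the supernatant was TMT-labelled for LC-MS/MS. Intensities were vsn-normalised, and the value is the fold change against the NP40-processed vehicle per replicate, from three independent experiments.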

The chains behind the UniProt entries cited, without tags or fusion partners. Where a name states a change or a piece, a line headed by the entry shows the natural chain unless it says otherwise.
UniProt Q92922, whole entry: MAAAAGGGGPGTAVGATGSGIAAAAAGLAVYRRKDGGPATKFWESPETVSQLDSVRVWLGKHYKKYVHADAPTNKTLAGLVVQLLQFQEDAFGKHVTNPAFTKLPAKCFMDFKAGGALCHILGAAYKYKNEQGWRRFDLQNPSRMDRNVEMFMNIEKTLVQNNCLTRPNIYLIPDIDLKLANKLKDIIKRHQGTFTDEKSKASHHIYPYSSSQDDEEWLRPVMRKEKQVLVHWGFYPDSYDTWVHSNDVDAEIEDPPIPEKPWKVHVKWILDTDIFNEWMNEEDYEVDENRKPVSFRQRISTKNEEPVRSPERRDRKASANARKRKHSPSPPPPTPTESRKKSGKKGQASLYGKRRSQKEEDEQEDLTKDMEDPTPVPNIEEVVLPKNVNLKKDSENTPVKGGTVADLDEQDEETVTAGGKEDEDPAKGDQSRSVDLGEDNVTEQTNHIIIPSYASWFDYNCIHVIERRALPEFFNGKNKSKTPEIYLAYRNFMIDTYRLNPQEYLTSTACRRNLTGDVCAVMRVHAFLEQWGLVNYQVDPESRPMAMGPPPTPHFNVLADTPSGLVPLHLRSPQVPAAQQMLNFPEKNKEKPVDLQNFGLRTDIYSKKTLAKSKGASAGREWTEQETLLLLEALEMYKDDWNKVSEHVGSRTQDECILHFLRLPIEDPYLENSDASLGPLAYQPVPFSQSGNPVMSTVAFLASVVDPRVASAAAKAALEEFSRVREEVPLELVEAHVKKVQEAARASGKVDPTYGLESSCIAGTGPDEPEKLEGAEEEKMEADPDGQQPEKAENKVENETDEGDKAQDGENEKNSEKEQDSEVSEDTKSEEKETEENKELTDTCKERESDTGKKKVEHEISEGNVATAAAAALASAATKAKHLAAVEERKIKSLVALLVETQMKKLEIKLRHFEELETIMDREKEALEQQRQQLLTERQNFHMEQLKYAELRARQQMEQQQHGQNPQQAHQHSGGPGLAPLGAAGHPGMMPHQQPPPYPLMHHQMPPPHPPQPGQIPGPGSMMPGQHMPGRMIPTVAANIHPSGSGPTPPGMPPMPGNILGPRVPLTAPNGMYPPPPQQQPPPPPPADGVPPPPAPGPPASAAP
UniProt Q92688: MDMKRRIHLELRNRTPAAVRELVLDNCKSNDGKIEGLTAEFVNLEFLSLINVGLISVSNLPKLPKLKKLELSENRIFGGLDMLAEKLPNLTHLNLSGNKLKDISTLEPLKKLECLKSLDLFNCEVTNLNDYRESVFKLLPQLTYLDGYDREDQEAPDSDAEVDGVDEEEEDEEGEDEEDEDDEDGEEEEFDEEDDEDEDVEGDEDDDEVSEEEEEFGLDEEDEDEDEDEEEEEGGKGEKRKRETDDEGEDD
UniProt Q96G25: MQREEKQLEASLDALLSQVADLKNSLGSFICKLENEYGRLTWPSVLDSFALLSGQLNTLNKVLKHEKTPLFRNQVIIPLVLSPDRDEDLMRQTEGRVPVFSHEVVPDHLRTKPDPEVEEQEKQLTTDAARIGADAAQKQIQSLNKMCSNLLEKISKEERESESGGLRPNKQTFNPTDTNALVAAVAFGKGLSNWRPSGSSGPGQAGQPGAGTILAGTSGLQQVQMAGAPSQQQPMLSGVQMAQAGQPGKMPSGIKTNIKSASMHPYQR
UniProt Q8WYP5: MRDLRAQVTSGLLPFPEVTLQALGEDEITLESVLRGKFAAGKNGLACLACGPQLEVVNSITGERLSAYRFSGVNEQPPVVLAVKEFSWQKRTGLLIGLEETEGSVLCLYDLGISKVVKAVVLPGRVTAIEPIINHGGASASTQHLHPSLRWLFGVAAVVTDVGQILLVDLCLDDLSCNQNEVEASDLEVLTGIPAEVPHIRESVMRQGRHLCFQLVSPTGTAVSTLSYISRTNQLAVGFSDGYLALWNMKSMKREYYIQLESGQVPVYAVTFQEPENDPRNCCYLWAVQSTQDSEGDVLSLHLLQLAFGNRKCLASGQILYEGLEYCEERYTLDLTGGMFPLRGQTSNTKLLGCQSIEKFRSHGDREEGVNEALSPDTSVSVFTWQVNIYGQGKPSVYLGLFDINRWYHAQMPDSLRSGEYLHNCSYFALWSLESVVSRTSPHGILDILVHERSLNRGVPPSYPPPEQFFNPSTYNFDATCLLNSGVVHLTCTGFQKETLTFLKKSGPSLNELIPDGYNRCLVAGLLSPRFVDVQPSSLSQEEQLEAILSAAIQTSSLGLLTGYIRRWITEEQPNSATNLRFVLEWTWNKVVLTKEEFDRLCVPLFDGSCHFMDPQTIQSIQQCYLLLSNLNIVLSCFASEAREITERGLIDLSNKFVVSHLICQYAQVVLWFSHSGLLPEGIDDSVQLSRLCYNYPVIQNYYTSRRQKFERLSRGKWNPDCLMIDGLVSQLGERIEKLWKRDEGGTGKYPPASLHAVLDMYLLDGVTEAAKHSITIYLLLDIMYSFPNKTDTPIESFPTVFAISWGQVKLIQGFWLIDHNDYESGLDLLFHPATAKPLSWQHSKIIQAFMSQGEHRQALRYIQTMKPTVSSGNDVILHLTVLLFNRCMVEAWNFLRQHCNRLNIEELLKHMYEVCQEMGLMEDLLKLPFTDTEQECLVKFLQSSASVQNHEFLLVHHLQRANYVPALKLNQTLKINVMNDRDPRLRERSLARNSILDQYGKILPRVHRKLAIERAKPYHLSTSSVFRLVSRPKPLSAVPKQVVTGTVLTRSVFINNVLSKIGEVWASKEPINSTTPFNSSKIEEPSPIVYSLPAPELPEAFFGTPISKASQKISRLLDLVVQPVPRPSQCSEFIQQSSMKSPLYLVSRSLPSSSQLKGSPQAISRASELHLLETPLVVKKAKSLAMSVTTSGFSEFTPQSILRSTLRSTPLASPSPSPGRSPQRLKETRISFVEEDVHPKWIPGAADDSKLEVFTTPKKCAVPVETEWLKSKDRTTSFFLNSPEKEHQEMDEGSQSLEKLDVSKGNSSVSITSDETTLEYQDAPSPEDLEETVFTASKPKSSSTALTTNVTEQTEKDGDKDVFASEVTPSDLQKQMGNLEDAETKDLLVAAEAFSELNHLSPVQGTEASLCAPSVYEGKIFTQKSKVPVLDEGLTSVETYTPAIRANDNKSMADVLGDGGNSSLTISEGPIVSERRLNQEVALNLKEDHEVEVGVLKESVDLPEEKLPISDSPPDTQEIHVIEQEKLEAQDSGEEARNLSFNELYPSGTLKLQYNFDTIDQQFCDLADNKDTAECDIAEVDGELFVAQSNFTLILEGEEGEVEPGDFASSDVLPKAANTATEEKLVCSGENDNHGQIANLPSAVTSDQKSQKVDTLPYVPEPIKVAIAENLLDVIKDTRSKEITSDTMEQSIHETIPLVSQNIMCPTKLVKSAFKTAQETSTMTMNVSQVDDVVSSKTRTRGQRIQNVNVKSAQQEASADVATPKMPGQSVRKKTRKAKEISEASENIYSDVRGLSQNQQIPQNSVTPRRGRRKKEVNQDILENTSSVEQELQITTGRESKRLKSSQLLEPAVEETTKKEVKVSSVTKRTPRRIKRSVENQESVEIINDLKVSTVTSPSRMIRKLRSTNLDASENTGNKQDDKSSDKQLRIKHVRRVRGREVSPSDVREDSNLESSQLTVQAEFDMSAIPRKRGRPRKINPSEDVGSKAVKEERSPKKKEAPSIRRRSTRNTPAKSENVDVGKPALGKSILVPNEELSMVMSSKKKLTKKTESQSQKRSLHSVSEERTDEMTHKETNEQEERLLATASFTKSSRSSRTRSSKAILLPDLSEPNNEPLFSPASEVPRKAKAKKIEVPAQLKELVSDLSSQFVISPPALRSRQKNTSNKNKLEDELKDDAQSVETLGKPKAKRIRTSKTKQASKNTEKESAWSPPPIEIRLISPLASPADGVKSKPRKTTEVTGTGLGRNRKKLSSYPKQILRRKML
UniProt Q92616, whole entry: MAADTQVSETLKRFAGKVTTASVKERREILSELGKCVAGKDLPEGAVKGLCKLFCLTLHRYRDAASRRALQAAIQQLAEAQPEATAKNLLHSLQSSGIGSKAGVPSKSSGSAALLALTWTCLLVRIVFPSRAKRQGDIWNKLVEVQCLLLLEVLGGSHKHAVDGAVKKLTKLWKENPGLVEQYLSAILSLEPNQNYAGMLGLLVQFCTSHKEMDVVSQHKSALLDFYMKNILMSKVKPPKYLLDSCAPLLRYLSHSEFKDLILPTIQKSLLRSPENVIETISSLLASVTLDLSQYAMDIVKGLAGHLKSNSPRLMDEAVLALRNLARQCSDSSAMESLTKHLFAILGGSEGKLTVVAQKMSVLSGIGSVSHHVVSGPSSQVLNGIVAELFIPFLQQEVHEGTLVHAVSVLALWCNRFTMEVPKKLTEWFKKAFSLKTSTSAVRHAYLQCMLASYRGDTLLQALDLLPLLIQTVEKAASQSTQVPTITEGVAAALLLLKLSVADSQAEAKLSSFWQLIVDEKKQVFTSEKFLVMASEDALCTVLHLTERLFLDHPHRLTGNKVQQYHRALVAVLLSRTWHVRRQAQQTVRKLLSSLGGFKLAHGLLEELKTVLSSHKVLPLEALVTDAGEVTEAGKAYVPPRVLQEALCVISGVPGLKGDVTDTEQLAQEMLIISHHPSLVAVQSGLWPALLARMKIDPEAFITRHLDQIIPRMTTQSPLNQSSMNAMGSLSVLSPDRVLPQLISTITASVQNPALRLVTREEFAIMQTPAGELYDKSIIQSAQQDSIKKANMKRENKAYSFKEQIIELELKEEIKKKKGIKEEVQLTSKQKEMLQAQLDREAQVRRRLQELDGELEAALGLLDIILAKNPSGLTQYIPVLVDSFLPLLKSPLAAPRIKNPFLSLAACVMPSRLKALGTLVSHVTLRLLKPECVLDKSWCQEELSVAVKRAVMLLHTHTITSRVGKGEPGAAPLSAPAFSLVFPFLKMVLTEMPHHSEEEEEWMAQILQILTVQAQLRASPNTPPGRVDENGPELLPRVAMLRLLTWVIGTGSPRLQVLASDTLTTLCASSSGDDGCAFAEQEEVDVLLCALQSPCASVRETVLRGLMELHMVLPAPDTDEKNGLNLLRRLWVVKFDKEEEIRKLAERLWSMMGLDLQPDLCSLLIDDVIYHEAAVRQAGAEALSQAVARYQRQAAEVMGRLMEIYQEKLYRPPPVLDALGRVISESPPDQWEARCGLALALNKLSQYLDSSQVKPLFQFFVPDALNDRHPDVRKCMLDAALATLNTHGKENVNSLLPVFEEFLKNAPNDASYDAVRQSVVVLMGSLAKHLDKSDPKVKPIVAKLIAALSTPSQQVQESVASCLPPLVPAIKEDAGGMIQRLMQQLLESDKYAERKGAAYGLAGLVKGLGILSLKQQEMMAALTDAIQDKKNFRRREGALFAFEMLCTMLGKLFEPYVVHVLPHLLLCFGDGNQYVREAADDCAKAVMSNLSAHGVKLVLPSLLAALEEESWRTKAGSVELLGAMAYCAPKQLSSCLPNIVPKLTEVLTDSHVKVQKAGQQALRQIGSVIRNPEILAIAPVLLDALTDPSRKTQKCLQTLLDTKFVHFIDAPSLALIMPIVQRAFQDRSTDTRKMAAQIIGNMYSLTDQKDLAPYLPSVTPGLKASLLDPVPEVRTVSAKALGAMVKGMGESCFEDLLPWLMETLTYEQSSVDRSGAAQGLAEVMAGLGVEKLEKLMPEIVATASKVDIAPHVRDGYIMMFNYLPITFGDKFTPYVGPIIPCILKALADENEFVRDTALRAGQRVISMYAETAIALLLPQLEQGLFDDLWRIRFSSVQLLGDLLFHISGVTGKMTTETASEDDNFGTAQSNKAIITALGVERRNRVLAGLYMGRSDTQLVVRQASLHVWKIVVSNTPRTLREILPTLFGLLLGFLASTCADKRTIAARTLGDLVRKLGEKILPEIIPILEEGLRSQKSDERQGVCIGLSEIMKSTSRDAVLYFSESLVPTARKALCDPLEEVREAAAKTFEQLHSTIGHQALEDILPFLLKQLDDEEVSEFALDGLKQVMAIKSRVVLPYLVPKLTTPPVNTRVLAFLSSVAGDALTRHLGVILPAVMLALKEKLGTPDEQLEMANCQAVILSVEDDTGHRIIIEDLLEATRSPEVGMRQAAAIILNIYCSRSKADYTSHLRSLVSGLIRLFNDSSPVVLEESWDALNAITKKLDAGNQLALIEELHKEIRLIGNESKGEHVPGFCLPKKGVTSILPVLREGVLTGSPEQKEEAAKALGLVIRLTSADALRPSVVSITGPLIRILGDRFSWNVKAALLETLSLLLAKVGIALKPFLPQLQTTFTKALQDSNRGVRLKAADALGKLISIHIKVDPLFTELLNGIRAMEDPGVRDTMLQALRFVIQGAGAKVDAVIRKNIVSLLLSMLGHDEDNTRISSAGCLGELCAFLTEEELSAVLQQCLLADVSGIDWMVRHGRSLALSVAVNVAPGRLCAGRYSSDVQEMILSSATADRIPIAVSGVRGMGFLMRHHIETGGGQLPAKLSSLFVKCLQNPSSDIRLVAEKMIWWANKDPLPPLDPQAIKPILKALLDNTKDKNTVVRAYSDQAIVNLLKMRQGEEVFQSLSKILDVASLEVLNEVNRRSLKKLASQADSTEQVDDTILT

± gives the standard deviation of the averaged measurements. The list shows a part of the results.

Turning to NSUN4 (UniProt Q96CB9), the NP40-soluble protein abundance is, setting by setting: (concentration: 0.1mM) 1.2 ± 0.032; (concentration: 0.5mM) 1.2 ± 0.022; (concentration: 1mM) 0.876 ± 0.031; (concentration: 2mM) 1.07 ± 0.11; (concentration: 4mM) 1.07 ± 0.075; (concentration: 6mM) 0.988 ± 0.029. Moreover, the NP40-soluble protein abundance by setting is: (concentration: 8mM) 0.83642 ± 0.00078; (concentration: 10mM) 0.825 ± 0.13.

Regarding UniProt Q96HY6 and related entries, the NP40-soluble protein abundance is, setting by setting: (concentration: 0.1mM) 1.12 ± 0.15; (concentration: 0.5mM) 1.04 ± 0.089; (concentration: 1mM) 1.06 ± 0.076; (concentration: 2mM) 1.2 ± 0.17; (concentration: 4mM) 1.18 ± 0.098; (concentration: 6mM) 1.17 ± 0.089. In addition, the NP40-soluble protein abundance was found to be 1.12 ± 0.15 (concentration: 8mM) and 1.21 ± 0.031 (concentration: 10mM).

As to UniProt Q96B23-2, the NP40-soluble protein abundance by setting is: (concentration: 0.1mM) 0.952 ± 0.11; (concentration: 0.5mM) 0.889 ± 0.046; (concentration: 1mM) 0.927 ± 0.15; (concentration: 2mM) 0.886 ± 0.18; (concentration: 4mM) 0.859 ± 0.099; (concentration: 6mM) 0.857 ± 0.13. The NP40-soluble protein abundance (concentration: 8mM) is 0.872 ± 0.12 and the NP40-soluble protein abundance (concentration: 10mM) turned out to be 0.904 ± 0.13.

Turning to SMARCC1 (UniProt Q92922), the NP40-soluble protein abundance worked out at 0.991 ± 0.028 (concentration: 0.1mM); 1.07 ± 0.027 (concentration: 0.5mM); 1.11 ± 0.048 (concentration: 1mM); 1.14 ± 0.091 (concentration: 2mM); 1.17 ± 0.14 (concentration: 4mM); 1.18 ± 0.12 (concentration: 6mM). Moreover, the NP40-soluble protein abundance was 1.22 ± 0.19 (concentration: 8mM) and 1.23 ± 0.2 (concentration: 10mM).

On to UniProt Q92688 and related entries, for which the NP40-soluble protein abundance is, setting by setting: (concentration: 0.1mM) 0.862 ± 0.035; (concentration: 0.5mM) 0.816 ± 0.078; (concentration: 1mM) 0.95 ± 0.052; (concentration: 2mM) 0.857 ± 0.071; (concentration: 4mM) 0.899 ± 0.08; (concentration: 6mM) 0.881 ± 0.059. For the same target, the NP40-soluble protein abundance (concentration: 8mM) is 0.91 ± 0.09 and the NP40-soluble protein abundance (concentration: 10mM) was 0.916 ± 0.039.

For UniProt Q96G25 and related entries, the NP40-soluble protein abundance worked out at 1.02 ± 0.06 (concentration: 0.1mM); 0.981 ± 0.017 (concentration: 0.5mM); 1.08 ± 0.027 (concentration: 1mM); 1.07 ± 0.07 (concentration: 2mM); 1.11 ± 0.22 (concentration: 4mM); 1.06 ± 0.19 (concentration: 6mM). In addition, the NP40-soluble protein abundance stood at 1.13 ± 0.14 (concentration: 8mM) and 1.17 ± 0.21 (concentration: 10mM).

Turning to TESC (UniProt Q96BS2), the NP40-soluble protein abundance is, setting by setting: (concentration: 0.1mM) 1.01 ± 0.035; (concentration: 0.5mM) 0.983 ± 0.071; (concentration: 1mM) 0.985 ± 0.095; (concentration: 2mM) 0.968 ± 0.16; (concentration: 4mM) 0.907 ± 0.074; (concentration: 6mM) 0.932 ± 0.092. The NP40-soluble protein abundance is, setting by setting: (concentration: 8mM) 0.926 ± 0.073; (concentration: 10mM) 0.915 ± 0.09.

For the target UniProt Q93050 and related entries, the NP40-soluble protein abundance is, setting by setting: (concentration: 0.1mM) 1.04 ± 0.099; (concentration: 0.5mM) 1.13 ± 0.071; (concentration: 1mM) 1.02 ± 0.062; (concentration: 2mM) 1.05 ± 0.097; (concentration: 4mM) 1.085 ± 0.0057; (concentration: 6mM) 1.1 ± 0.033. The NP40-soluble protein abundance reads like this: (concentration: 8mM) 1.08 ± 0.048; (concentration: 10mM) 1.03 ± 0.079.

In the case of UniProt Q8WXE0 and related entries, the NP40-soluble protein abundance (concentration: 0.1mM) is 0.966 ± 0.044; the NP40-soluble protein abundance (concentration: 0.5mM) worked out at 0.995 ± 0.053; the NP40-soluble protein abundance (concentration: 1mM) stood at 0.996 ± 0.08; the NP40-soluble protein abundance (concentration: 2mM) was 0.973 ± 0.14; the NP40-soluble protein abundance (concentration: 4mM) was 0.955 ± 0.097; the NP40-soluble protein abundance (concentration: 6mM) was 0.932 ± 0.093. For the same target, the NP40-soluble protein abundance is, setting by setting: (concentration: 8mM) 0.94 ± 0.11; (concentration: 10mM) 0.963 ± 0.078.

With SMARCD1 (UniProt Q96GM5), the NP40-soluble protein abundance (concentration: 0.1mM) is 1.06 ± 0.036; the NP40-soluble protein abundance (concentration: 0.5mM) was determined as 1.11 ± 0.065; the NP40-soluble protein abundance (concentration: 1mM) came to 1.09 ± 0.089; the NP40-soluble protein abundance (concentration: 2mM) is 1.18 ± 0.16; the NP40-soluble protein abundance (concentration: 4mM) stood at 1.18 ± 0.17; the NP40-soluble protein abundance (concentration: 6mM) stood at 1.18 ± 0.19. For the same target, the NP40-soluble protein abundance (concentration: 8mM) was determined as 1.15 ± 0.18 and the NP40-soluble protein abundance (concentration: 10mM) worked out at 1.16 ± 0.17.

Regarding UniProt Q92615, the NP40-soluble protein abundance stood at 0.985 ± 0.041 (concentration: 0.1mM); 1 ± 0.04 (concentration: 0.5mM); 1.08 ± 0.061 (concentration: 1mM); 1.15 ± 0.092 (concentration: 2mM); 1.14 ± 0.076 (concentration: 4mM); 1.19 ± 0.066 (concentration: 6mM). The NP40-soluble protein abundance is, setting by setting: (concentration: 8mM) 1.29 ± 0.057; (concentration: 10mM) 1.34 ± 0.11.

As for UniProt Q8WUY1, the NP40-soluble protein abundance (concentration: 0.1mM) came to 0.964 ± 0.059; the NP40-soluble protein abundance (concentration: 0.5mM) stood at 0.919 ± 0.07; the NP40-soluble protein abundance (concentration: 1mM) was 0.932 ± 0.068; the NP40-soluble protein abundance (concentration: 2mM) turned out to be 0.983 ± 0.073; the NP40-soluble protein abundance (concentration: 4mM) is 1 ± 0.085; the NP40-soluble protein abundance (concentration: 6mM) is 1.01 ± 0.034. For the same target, the NP40-soluble protein abundance reads like this: (concentration: 8mM) 0.977 ± 0.058; (concentration: 10mM) 0.988 ± 0.071.

For AIDA (UniProt Q96BJ3), the NP40-soluble protein abundance runs as follows: (concentration: 0.1mM) 0.969 ± 0.099; (concentration: 0.5mM) 0.958 ± 0.099; (concentration: 1mM) 0.959 ± 0.097; (concentration: 2mM) 0.926 ± 0.12; (concentration: 4mM) 0.887 ± 0.066; (concentration: 6mM) 0.873 ± 0.092. Also, the NP40-soluble protein abundance runs as follows: (concentration: 8mM) 0.915 ± 0.11; (concentration: 10mM) 0.887 ± 0.12.

As to UniProt Q96BY9 and related entries, the NP40-soluble protein abundance was 1.08 ± 0.15 (concentration: 0.1mM); 1.08 ± 0.064 (concentration: 0.5mM); 1.09 ± 0.15 (concentration: 1mM); 1.1 ± 0.094 (concentration: 2mM); 1.03 ± 0.11 (concentration: 4mM); 1.01 ± 0.1 (concentration: 6mM). In addition, the NP40-soluble protein abundance runs as follows: (concentration: 8mM) 1.05 ± 0.19; (concentration: 10mM) 1.07 ± 0.22.

With UniProt Q8WYP5 and related entries, the NP40-soluble protein abundance (concentration: 0.1mM) amounted to 1.07 ± 0.029; the NP40-soluble protein abundance (concentration: 0.5mM) stood at 1.08 ± 0.026; the NP40-soluble protein abundance (concentration: 1mM) was 1.09 ± 0.04; the NP40-soluble protein abundance (concentration: 2mM) is 1.16 ± 0.054; the NP40-soluble protein abundance (concentration: 4mM) turned out to be 1.3 ± 0.046; the NP40-soluble protein abundance (concentration: 6mM) turned out to be 1.36 ± 0.085. The NP40-soluble protein abundance runs as follows: (concentration: 8mM) 1.49 ± 0.09; (concentration: 10mM) 1.55 ± 0.11.

Take UniProt Q92616: the NP40-soluble protein abundance reads like this: (concentration: 0.1mM) 1.04 ± 0.041; (concentration: 0.5mM) 1.06 ± 0.072; (concentration: 1mM) 1.04 ± 0.067; (concentration: 2mM) 1.06 ± 0.1; (concentration: 4mM) 1.06 ± 0.1; (concentration: 6mM) 1.02 ± 0.1. For the same target, the NP40-soluble protein abundance (concentration: 8mM) amounted to 0.998 ± 0.081 and the NP40-soluble protein abundance (concentration: 10mM) came out at 0.969 ± 0.059.

For UniProt Q96AJ9 and related entries, the NP40-soluble protein abundance (concentration: 0.1mM) was 0.962 ± 0.028; the NP40-soluble protein abundance (concentration: 0.5mM) stood at 0.931 ± 0.067; the NP40-soluble protein abundance (concentration: 1mM) was 1.072 ± 0.0059; the NP40-soluble protein abundance (concentration: 2mM) amounted to 1.02 ± 0.056; the NP40-soluble protein abundance (concentration: 4mM) stood at 1.06 ± 0.062; the NP40-soluble protein abundance (concentration: 6mM) is 0.997 ± 0.054. The NP40-soluble protein abundance by setting is: (concentration: 8mM) 0.971 ± 0.086; (concentration: 10mM) 1.03 ± 0.043.

The values are drawn from the supplement of paper PMC6411743.
